Experimental data taken from the supplement of paper PMC12819154, “High-throughput peptide-centric local stability assay extends protein–ligand identification to membrane proteins, tissues and bacteria” (Nature Structural & Molecular Biology, 2025).
The list shows a part of the results. Most values lie at the level of the controls, where differences are scatter.

The chains behind the UniProt entries cited, without tags or fusion partners. Where a name states a change or a piece, a line headed by the entry shows the natural chain unless it says otherwise.
UniProt P53621: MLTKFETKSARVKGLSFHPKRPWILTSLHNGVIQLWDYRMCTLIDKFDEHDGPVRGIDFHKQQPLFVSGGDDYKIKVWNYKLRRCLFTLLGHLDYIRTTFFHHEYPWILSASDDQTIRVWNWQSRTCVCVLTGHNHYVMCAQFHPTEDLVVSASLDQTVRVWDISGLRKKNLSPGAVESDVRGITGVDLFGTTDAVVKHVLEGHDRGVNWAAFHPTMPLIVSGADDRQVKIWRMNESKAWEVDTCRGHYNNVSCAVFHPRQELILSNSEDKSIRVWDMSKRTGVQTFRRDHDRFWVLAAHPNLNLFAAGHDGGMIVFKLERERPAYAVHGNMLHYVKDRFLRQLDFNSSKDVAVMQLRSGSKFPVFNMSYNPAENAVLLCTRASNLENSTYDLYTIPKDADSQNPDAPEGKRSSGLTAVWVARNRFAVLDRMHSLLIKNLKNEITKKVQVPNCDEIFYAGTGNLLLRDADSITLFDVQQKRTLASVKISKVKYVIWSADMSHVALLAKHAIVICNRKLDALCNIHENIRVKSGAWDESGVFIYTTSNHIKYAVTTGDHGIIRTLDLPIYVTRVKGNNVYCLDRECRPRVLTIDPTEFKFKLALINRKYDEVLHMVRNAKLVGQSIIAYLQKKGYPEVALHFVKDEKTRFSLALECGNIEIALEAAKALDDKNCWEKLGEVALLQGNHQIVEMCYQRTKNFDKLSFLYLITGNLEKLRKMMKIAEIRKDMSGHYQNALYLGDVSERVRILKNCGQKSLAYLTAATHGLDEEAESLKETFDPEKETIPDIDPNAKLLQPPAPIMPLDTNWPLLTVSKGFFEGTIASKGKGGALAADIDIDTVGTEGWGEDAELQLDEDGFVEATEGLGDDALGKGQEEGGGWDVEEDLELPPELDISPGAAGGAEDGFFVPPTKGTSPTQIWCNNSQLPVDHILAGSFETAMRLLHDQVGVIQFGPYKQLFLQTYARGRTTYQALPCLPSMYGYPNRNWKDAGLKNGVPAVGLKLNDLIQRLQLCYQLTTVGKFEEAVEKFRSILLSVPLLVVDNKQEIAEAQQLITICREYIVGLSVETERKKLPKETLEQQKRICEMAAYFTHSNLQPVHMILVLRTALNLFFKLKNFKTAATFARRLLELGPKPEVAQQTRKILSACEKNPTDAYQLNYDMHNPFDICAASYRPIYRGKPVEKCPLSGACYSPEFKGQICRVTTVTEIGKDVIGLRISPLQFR
UniProt P51911: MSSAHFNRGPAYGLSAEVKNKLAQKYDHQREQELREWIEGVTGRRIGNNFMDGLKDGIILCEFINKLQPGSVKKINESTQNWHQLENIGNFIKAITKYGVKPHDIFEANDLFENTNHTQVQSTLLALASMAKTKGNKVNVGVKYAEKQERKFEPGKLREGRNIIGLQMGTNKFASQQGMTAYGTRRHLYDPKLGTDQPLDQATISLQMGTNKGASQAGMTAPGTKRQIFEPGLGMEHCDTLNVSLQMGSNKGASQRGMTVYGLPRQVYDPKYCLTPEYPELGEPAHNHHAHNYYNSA
UniProt P47897: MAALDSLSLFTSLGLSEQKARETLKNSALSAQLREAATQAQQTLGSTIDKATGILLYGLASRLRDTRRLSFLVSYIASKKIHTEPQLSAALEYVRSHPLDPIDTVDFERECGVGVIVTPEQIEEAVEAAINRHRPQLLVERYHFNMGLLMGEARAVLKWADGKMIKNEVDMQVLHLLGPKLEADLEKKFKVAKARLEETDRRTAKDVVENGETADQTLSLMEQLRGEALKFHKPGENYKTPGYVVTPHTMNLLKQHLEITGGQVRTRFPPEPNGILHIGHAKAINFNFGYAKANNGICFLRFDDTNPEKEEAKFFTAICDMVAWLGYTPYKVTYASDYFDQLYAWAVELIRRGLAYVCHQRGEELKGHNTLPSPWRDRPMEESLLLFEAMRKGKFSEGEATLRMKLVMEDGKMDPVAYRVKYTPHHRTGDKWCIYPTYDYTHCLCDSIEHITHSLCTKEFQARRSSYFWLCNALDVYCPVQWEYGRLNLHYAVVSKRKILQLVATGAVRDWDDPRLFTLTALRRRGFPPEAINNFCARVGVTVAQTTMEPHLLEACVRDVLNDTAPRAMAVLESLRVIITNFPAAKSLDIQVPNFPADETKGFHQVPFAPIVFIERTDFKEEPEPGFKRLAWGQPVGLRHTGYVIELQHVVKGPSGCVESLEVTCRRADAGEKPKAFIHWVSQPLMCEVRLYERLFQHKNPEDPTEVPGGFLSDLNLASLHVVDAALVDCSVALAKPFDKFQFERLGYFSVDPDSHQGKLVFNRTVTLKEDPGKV
UniProt P49756, whole entry: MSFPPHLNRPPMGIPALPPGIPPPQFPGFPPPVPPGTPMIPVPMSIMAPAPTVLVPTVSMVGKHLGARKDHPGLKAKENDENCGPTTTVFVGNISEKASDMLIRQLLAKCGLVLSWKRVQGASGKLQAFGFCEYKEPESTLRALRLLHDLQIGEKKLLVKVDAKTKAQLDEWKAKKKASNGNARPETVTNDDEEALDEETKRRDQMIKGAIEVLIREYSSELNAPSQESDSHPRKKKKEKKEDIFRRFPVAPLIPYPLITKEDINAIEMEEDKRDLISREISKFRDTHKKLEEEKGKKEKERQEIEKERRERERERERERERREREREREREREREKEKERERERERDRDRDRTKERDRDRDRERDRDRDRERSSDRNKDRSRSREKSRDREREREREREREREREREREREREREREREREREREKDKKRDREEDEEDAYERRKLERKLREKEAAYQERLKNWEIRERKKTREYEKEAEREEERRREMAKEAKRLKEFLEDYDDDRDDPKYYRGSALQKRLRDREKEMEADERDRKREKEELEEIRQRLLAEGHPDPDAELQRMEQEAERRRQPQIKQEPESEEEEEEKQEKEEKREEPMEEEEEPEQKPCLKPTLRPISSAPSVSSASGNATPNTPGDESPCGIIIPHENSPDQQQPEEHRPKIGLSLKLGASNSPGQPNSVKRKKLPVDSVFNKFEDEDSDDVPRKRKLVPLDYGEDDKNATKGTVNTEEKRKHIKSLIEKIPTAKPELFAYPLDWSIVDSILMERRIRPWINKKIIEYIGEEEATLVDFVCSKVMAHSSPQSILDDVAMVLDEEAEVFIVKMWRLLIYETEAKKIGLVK
UniProt P53367: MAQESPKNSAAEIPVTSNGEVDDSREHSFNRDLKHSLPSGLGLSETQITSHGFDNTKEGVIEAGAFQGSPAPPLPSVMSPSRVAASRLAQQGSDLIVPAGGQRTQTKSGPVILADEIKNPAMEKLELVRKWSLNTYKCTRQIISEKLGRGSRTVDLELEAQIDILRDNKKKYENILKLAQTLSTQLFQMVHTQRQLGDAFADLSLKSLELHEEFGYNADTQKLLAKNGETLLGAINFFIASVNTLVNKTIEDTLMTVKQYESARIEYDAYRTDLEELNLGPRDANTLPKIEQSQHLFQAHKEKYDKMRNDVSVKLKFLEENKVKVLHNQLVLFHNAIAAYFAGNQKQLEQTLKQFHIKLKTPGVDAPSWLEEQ
UniProt P54259: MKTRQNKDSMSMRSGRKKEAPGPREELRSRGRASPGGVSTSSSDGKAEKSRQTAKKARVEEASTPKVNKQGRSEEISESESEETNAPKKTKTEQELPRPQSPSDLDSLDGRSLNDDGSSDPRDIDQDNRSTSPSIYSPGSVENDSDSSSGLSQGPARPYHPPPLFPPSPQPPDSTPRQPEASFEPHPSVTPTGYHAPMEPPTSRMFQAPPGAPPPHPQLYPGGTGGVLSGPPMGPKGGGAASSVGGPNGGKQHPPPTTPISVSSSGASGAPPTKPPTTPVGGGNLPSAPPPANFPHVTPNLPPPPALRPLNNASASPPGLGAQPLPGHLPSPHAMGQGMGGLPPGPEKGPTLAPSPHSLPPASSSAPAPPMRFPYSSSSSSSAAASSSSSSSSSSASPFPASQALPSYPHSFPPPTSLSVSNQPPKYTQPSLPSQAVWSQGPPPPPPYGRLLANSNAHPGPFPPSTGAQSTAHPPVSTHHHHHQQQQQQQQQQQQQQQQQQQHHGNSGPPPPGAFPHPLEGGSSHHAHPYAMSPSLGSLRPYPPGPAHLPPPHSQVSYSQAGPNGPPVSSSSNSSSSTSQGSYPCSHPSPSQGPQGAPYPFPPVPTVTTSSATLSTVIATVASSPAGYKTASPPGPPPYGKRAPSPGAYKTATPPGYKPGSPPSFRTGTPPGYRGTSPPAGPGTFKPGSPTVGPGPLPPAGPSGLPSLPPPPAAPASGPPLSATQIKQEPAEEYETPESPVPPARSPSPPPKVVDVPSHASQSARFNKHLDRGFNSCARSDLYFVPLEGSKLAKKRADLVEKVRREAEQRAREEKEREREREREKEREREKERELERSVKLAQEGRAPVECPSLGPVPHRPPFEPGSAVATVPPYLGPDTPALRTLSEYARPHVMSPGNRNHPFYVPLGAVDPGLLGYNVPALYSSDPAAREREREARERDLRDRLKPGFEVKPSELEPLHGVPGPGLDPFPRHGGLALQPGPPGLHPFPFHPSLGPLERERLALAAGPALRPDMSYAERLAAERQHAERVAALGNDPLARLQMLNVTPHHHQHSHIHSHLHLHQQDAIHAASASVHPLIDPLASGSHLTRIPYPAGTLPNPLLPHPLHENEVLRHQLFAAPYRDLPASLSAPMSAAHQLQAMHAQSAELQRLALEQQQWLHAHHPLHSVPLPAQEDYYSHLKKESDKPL
UniProt P46459: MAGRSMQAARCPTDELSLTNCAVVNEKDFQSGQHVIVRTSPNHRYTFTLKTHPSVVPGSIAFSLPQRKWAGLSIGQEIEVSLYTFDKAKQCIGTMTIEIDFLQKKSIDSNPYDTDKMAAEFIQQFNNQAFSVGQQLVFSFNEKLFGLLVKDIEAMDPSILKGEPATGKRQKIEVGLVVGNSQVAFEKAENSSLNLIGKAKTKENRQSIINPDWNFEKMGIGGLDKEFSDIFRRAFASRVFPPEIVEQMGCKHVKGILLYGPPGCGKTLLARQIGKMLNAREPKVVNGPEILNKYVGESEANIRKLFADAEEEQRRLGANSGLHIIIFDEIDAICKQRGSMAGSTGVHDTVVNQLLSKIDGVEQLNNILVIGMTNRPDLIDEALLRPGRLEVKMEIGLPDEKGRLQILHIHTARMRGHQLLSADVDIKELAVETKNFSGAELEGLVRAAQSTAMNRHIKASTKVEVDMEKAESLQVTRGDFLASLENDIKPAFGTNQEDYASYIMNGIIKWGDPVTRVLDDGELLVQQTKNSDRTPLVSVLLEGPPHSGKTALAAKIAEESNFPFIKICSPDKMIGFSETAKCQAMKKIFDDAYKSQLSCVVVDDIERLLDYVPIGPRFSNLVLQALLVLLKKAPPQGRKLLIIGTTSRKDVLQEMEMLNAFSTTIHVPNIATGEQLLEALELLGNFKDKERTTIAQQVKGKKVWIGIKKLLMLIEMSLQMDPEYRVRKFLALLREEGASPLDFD
UniProt P52657, whole entry: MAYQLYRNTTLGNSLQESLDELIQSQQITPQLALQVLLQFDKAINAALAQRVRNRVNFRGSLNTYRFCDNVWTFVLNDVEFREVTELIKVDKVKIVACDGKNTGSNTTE
UniProt P53805: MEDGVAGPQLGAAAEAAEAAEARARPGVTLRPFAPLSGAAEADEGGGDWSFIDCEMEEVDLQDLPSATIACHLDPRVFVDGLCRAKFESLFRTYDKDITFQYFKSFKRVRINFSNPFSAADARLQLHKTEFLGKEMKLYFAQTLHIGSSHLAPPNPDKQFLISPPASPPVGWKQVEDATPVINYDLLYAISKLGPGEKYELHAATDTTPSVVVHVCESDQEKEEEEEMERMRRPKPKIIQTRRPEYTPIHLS
UniProt P50120: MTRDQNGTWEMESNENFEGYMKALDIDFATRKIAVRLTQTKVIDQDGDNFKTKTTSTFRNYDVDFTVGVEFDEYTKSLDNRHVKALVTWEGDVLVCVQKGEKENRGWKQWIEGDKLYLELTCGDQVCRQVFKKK
UniProt P47895: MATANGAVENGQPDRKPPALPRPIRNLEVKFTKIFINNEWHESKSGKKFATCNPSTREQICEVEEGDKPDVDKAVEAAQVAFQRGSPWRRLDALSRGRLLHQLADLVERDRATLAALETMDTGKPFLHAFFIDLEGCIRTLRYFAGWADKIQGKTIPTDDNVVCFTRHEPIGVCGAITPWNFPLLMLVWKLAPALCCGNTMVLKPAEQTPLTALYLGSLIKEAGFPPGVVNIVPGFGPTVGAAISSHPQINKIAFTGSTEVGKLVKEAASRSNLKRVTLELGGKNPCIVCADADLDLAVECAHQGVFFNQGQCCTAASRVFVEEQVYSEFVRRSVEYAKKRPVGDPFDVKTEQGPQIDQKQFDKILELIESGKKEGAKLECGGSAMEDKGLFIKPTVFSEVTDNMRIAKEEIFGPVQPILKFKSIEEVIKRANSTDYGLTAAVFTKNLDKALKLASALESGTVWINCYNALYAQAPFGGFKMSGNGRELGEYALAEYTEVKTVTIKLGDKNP

Compound: Cc1nc(Nc2ncc(C(=O)Nc3c(C)cccc3Cl)s2)cc(N2CCN(CCO)CC2)n1 [dasatinib]
Experiment: log2 fold change of tryptic peptide abundance, ligand vs vehicle (limited proteolysis) (log2 ratio); higher = more trypsin-susceptible (destabilized)
Settings: ligand concentration: 5 uM; sample: K562 cleared lysate

Target | log2 fold change
COPA (peptide sequence: ALDDKNCWEK, peptide start residue: 667) (UniProt P53621) | -0.377
CNN1 (peptide sequence: GPAYGLSAEVK, peptide start residue: 9) (UniProt P51911) | -0.0923
QARS (peptide sequence: LGYFSVDPDSHQGK, peptide start residue: 746) (UniProt P47897) | -0.217
HIRA (peptide sequence: SKATPGAPALTSMTPTAVER, peptide start residue: 573) (UniProt P54198) | -0.416
RBM25 (peptide sequence: LVPLDYGEDDKNATK, peptide start residue: 712) (UniProt P49756) | -0.225
ARFIP1 (peptide sequence: TIEDTLMTVK, peptide start residue: 249) (UniProt P53367) | -0.138
BLM (peptide sequence: KVAFDCLEWIR, peptide start residue: 873) (UniProt P54132) | -0.445
POLR2J (peptide sequence: VAIKDKQEGIE, peptide start residue: 107) (UniProt P52435) | 0.0796
ATN1 (peptide sequence: TLSEYARPHVMSPGNR, peptide start residue: 885) (UniProt P54259) | -0.0977
FASN (peptide sequence: AINCATSGVVGLVNCLRR, peptide start residue: 1445) (UniProt P49327) | -0.632
MCM2 (peptide sequence: ERISDMCK, peptide start residue: 217) (UniProt P49736) | 0.475
SUCLG1 (peptide sequence: QHLYVDKNTK, peptide start residue: 48) (UniProt P53597) | -0.272
CCT8 (peptide sequence: TAEELMNFSK, peptide start residue: 261) (UniProt P50990) | 0.0647
RAB28 (peptide sequence: VAAEILGIK, peptide start residue: 173) (UniProt P51157) | -0.106
FXR1 (peptide sequence: DVIEEHGPSEK, peptide start residue: 568) (UniProt P51114) | 0.155
NES (peptide sequence: SLGAWNLENLR, peptide start residue: 894) (UniProt P48681) | -0.147
UniProt P49765 (peptide sequence: YPSSQLGEMSLEEHSQCECRPK, peptide start residue: 106) | -0.471
RFX2 (peptide sequence: SSLYNHYLR, peptide start residue: 218) (UniProt P48378) | -0.271
NSF (peptide sequence: MGIGGLDKEFSDIFRR, peptide start residue: 218) (UniProt P46459) | 0.14
CCT5 (peptide sequence: LMGLEALKSHIMAAK, peptide start residue: 28) (UniProt P48643) | 0.402
GTF2A2 (peptide sequence: AINAALAQR, peptide start residue: 43) (UniProt P52657) | -0.211
SLC16A1 (peptide sequence: DLHDANTDLIGR, peptide start residue: 225) (UniProt P53985) | 0.226
UniProt P53990 (peptide sequence: KEIADYLAAGKDER, peptide start residue: 38) | -0.14
RCAN1 (peptide sequence: TYDKDITFQYFK, peptide start residue: 93) (UniProt P53805) | 0.107
UniProt P50120 (peptide sequence: KIAVRLTQTK, peptide start residue: 32) | 0.619
ATRX (peptide sequence: NSSDSAIDNPKPNKLPK, peptide start residue: 702) (UniProt P46100) | 0.427
ALDH1A3 (peptide sequence: IAFTGSTEVGK, peptide start residue: 259) (UniProt P47895) | -0.000271

Reprinted at random: 2 entries already listed, in no set order.
Target | log2 fold change
UniProt P53990 (peptide sequence: KEIADYLAAGKDER, peptide start residue: 38) | -0.14
CCT5 (peptide sequence: LMGLEALKSHIMAAK, peptide start residue: 28) (UniProt P48643) | 0.402
